# Assay results published in US6235929A (Georgia Tech Research Corporation, priority 1996, dated 2001).
# Assay: general procedure: solution-phase peptide synthesis; iso-butyl chloroformate / N-methyl morpholine (mixed anhydride)
Substance,step yield (coupling step),step yield (late stage modification step)
Ac--Tyr--Val--Ala--Asp(Bzl)--CONH--CH2 CH2 Ph,93%,
Ac--Tyr--Val--Ala--Asp--CONH--CH2 CH2 Ph,,57%
